From patent publication US9688736B2 (Eli Lilly and Company, priority 2013, dated 2017) come the findings set out here.

Square brackets hold non-standard residues; d marks the D form. Ends that are not written are not given here. Aib = CC(C)(N)C(=O)O

A short description of this series: general procedure: Fmoc solid-phase peptide synthesis; Fmoc-Glu(OtBu)-Wang polystyrene resin (Advanced ChemTech), approximately 0.9 mmol/g; DIC/HOBt. The note with it: whole synthesis, 220 nm, scale 0.125 mmols, TFA salt converted to acetate salt.

For YSHGTFTSDVSKYLD[Aib]KKAAEFVAWLLEE, the “final purity (method not given)” value is on record as more than 95%.
